Paper doi:10.1101/2021.07.21.452842
These are yes or no findings as the source states them, for the method shown. Binding seen in cells or lysates may run through a third protein. Some binding calls cover weakened binding; strength is not graded here.

Sequences of proteins named here, by UniProt entry; tags and fusion partners are left off. A change or cut given only in a name is not applied to a line headed by its entry. A line that says so, or that is headed by a name, gives the form on record, which may keep a tag or linker.
UniProt P38398: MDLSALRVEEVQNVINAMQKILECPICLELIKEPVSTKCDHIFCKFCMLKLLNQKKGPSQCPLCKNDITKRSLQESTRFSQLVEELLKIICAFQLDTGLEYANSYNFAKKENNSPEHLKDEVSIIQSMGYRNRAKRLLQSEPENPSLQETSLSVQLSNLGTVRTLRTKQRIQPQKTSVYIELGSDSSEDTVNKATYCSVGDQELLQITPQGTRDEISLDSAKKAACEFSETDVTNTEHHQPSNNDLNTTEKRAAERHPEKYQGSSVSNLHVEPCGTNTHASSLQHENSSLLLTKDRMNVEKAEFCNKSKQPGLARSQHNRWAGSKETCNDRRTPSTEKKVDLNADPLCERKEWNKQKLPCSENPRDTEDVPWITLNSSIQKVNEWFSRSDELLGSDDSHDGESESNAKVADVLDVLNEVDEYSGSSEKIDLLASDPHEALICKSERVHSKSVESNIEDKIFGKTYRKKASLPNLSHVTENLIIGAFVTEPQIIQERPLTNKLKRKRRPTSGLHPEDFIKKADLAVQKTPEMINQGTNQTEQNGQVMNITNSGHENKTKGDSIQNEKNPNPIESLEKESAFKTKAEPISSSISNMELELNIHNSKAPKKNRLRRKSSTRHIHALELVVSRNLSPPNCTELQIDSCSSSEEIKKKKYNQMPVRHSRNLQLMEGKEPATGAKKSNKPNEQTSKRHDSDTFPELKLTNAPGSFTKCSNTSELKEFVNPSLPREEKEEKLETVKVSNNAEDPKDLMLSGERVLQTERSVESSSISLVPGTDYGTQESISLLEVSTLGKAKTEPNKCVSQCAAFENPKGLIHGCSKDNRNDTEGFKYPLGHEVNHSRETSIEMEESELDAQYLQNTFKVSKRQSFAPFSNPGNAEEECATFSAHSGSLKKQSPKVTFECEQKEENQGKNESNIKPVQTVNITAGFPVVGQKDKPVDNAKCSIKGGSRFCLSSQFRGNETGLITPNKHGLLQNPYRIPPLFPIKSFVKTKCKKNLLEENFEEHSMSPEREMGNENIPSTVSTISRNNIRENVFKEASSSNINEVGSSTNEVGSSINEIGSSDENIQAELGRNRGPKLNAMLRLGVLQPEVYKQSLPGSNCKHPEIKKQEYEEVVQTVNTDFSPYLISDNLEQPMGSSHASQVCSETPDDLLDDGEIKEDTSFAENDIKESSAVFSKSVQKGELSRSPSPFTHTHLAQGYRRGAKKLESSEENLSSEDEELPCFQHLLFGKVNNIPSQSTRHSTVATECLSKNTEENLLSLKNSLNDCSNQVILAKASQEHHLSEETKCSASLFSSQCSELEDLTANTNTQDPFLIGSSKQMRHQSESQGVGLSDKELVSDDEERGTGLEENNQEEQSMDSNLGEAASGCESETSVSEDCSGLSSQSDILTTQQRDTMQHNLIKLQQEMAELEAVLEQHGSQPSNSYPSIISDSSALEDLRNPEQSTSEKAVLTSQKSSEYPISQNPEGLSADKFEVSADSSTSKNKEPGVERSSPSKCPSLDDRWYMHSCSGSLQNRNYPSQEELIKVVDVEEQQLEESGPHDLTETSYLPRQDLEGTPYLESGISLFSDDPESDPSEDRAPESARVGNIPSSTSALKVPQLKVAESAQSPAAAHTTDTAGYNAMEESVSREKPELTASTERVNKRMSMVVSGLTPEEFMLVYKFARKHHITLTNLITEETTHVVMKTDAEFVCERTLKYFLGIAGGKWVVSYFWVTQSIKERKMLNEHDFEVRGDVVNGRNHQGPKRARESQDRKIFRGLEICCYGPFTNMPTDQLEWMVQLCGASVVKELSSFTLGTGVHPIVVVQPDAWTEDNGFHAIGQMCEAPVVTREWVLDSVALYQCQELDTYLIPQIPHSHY
endogenous full-length GIV (human cell lysates) (Q3V6T2-3, form named): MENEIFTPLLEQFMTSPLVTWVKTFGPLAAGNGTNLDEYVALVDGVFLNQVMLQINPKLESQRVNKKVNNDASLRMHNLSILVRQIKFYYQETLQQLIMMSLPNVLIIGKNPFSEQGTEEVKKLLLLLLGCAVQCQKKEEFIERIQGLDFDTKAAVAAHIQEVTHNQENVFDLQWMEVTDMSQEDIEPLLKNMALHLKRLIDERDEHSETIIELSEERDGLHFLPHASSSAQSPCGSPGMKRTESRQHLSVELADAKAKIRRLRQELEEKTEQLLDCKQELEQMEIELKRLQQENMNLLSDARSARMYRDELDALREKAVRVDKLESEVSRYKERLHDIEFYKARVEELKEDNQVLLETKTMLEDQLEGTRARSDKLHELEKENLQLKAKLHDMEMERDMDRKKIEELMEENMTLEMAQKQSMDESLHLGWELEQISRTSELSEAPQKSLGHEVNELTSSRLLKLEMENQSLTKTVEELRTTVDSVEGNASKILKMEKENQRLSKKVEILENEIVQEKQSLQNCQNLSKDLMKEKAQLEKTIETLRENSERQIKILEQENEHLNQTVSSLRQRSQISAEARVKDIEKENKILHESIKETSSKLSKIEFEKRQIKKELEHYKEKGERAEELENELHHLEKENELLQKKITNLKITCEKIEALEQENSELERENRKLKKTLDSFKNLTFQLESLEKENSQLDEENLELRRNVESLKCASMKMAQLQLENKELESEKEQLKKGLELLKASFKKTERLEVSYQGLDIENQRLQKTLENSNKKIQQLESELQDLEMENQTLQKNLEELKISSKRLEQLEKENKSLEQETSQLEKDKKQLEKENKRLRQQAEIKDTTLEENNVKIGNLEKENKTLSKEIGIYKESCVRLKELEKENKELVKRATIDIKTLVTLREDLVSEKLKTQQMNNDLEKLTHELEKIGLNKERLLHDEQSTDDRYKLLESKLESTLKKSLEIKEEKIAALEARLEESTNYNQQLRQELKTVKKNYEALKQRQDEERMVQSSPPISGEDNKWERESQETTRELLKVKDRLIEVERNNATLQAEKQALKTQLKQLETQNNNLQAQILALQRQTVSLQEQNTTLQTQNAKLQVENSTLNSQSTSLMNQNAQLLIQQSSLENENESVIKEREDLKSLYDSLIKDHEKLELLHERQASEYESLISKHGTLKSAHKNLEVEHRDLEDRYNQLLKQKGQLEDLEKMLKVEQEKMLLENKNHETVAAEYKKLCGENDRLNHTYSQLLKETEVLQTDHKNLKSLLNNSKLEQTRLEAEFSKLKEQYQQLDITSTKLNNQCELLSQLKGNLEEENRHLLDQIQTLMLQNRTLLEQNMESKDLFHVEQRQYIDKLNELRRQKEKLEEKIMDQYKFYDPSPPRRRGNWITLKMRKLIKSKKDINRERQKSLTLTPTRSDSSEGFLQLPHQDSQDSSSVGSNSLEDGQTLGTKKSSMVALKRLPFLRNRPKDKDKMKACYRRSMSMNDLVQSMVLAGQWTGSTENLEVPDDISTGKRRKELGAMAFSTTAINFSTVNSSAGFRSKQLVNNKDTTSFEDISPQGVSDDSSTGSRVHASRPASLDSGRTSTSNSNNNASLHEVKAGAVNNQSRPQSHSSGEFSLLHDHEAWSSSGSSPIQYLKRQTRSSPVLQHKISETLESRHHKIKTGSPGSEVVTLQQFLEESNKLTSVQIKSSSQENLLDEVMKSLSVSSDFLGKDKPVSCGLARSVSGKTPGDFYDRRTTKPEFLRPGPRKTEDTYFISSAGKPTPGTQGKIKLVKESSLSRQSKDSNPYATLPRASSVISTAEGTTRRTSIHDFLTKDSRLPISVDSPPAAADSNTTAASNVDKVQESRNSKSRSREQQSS

Target: Breast cancer type 1 susceptibility protein (BRCA1), endogenous (human (endogenous in HEK293T and HeLa)) (UniProt P38398)
Test: co-IP

Substance: endogenous full-length GIV (human cell lysates) (from UniProt Q3V6T2-3 1-1870)
- binding: binds
